No constants are given. Whether binding was seen depends on the method and setting. Binding seen in cells or lysates may run through a third protein. Some binding calls cover weakened binding; strength is not graded here.
Key:
[1] = biological target: FGFR3 Y373C, endogenous, KMS-11 multiple myeloma cells (human (endogenous in KMS-11)) (UniProt P22607); experiment: co-IP; endogenous FGFR3 and TAK1 in LP1 and KMS-11 multiple myeloma cells; 1 mg total lysate, 1% Nonidet P-40 lysis buffer, protein A-Sepharose, immunoblot
[2] = biological target: FGFR3, endogenous wild-type, LP1 multiple myeloma cells (human (endogenous in LP1)) (UniProt P22607); experiment: as above
[3] = biological target: human FGFR3, constitutively active (K650E), transiently expressed in HeLa cells (human) (UniProt P22607); experiment: co-IP; HeLa cells transiently expressing FGFR3 constructs, endogenous TAK1; 1 mg total lysate, 1% Nonidet P-40 lysis buffer, protein A-Sepharose, immunoblot
[4] = biological target: human FGFR3, wild-type, transiently expressed in HeLa cells (human) (UniProt P22607); experiment: as above
[5] = biological target: human FGFR3, kinase-dead (K508M), transiently expressed in HeLa cells (human) (UniProt P22607); experiment: as above
[6] = biological target: FGFR3, wild-type, overexpressed in MGHU3 bladder cancer cells (human) (UniProt P22607); experiment: co-IP; MGHU3 bladder cancer cells transfected with wild-type FGFR3, endogenous TAK1; 1 mg total lysate, 1% Nonidet P-40 lysis buffer, protein A-Sepharose, immunoblot
[7] = biological target: FGFR2, overexpressed in HEK293 cells (UniProt P21802); experiment: co-IP; HEK293 cells overexpressing FGFR1, -2 or -4, endogenous TAK1; 1 mg total lysate, Dynabeads instead of protein A-sepharose, no preclear step, immunoblot
[8] = biological target: human FGFR1, full-length ORF in pcDNA3.1, overexpressed in HEK293 cells (human) (UniProt P11362); experiment: as above
[9] = biological target: FGFR4, overexpressed in HEK293 cells (UniProt P22455); experiment: as above

Amino acid sequences for entries named in this document (tags omitted). A change or cut given only in a name is not applied to a line headed by its entry. Chains listed by the source or under a name are the forms on record and can include a tag or linker. Residues count along the entry.
FGFR3, wild-type, overexpressed in MGHU3 bladder cancer cells (P22607, residues 23-806): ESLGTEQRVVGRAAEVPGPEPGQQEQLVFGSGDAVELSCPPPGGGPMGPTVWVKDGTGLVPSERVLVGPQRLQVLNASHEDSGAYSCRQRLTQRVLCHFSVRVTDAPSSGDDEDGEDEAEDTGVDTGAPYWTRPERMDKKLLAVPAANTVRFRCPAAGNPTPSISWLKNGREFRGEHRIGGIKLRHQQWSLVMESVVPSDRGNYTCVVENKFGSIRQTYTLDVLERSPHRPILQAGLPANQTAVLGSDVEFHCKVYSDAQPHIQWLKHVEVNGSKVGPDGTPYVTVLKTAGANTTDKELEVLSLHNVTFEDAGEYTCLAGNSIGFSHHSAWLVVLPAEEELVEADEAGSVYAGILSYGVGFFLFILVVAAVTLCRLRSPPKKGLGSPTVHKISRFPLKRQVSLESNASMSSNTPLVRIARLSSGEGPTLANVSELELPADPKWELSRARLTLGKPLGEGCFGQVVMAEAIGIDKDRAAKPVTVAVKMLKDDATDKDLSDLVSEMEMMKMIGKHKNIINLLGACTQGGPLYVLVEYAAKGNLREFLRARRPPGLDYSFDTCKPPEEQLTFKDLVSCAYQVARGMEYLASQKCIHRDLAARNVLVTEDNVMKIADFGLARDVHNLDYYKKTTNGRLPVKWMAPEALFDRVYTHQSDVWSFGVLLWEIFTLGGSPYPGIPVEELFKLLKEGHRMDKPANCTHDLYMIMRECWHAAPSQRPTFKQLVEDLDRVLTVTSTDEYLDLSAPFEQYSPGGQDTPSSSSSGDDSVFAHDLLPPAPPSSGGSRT
FGFR3 Y373C, endogenous, KMS-11 multiple myeloma cells (human (endogenous in KMS-11)) (P22607, form named): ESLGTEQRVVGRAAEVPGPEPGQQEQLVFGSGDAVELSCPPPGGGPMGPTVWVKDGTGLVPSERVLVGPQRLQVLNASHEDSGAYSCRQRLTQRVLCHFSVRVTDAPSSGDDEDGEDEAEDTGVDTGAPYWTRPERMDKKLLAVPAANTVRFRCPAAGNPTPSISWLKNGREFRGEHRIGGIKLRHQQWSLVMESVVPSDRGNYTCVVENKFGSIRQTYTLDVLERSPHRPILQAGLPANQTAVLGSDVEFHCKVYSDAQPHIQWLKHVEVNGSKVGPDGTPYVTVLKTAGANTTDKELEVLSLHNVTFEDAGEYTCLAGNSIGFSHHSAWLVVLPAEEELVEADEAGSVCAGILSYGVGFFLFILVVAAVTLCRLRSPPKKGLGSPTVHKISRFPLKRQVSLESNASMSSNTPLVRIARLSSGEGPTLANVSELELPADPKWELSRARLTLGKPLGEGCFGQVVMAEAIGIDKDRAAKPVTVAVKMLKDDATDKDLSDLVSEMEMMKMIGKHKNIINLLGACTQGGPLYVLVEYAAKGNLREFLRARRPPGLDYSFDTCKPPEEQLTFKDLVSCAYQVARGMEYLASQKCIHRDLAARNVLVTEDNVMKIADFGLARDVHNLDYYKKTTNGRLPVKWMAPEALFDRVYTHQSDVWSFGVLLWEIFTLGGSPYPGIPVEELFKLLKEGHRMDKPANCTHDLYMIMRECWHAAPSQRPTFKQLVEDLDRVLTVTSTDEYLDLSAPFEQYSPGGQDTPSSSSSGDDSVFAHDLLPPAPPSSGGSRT
human FGFR3, constitutively active (K650E), transiently expressed in HeLa cells (P22607, form named): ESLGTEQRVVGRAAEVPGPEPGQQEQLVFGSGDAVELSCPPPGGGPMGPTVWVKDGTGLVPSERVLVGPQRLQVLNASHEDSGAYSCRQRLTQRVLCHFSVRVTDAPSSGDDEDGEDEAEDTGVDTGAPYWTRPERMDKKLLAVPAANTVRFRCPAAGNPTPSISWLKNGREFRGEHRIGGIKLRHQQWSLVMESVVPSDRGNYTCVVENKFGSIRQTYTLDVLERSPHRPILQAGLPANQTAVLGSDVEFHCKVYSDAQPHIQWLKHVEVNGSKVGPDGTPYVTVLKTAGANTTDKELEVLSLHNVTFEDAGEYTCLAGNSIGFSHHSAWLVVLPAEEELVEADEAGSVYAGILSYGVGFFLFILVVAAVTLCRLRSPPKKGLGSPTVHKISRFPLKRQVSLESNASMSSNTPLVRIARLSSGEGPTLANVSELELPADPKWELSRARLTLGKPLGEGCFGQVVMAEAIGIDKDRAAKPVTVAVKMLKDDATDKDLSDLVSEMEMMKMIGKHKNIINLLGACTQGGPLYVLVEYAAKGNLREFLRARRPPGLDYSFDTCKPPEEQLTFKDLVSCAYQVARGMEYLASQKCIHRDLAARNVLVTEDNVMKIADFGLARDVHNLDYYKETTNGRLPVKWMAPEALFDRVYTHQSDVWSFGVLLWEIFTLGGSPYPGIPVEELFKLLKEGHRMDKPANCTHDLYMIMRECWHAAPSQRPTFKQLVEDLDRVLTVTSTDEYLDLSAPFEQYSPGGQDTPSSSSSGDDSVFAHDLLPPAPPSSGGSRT
human FGFR3, kinase-dead (K508M), transiently expressed in HeLa cells (P22607, form named): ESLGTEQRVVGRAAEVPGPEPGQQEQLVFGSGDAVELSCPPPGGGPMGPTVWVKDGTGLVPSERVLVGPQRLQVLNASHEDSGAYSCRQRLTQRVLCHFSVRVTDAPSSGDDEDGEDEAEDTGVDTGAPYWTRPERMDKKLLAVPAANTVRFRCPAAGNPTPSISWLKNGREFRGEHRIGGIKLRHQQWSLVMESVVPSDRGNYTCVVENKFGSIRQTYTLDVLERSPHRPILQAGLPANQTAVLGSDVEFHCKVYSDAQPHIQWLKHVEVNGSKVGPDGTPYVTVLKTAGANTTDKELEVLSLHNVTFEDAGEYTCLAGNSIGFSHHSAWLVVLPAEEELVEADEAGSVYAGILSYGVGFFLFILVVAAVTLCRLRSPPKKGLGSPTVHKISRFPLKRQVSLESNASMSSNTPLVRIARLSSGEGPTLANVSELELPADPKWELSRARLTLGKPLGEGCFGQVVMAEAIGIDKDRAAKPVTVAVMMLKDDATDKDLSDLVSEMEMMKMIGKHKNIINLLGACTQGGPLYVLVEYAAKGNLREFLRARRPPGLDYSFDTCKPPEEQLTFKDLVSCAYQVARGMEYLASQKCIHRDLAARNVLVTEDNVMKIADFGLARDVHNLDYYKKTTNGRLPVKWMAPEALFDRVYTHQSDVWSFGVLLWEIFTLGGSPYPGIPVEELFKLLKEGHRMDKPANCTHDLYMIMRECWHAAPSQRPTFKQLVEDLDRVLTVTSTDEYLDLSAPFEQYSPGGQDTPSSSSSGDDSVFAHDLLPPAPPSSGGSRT
UniProt P21802, residues 22-821: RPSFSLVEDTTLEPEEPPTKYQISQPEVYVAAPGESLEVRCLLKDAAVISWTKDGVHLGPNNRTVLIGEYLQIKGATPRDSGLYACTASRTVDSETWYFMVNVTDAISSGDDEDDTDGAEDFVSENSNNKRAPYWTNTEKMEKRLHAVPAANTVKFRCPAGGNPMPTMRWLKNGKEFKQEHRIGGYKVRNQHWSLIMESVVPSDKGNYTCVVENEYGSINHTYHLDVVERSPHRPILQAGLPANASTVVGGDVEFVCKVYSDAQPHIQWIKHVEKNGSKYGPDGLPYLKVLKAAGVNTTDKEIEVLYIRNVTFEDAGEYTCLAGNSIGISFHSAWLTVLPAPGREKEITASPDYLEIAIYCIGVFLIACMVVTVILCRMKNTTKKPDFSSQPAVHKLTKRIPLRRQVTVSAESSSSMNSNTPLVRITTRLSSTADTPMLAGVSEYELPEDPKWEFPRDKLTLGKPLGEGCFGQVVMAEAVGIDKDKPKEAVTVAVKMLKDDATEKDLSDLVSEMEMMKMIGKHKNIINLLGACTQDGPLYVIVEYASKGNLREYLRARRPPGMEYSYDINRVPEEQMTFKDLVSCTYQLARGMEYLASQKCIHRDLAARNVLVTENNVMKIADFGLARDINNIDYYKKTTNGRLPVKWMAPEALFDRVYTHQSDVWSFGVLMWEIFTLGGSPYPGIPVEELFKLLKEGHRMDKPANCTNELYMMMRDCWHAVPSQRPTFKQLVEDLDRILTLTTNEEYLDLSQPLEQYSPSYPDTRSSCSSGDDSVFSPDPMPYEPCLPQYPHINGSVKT
UniProt P11362, residues 22-822: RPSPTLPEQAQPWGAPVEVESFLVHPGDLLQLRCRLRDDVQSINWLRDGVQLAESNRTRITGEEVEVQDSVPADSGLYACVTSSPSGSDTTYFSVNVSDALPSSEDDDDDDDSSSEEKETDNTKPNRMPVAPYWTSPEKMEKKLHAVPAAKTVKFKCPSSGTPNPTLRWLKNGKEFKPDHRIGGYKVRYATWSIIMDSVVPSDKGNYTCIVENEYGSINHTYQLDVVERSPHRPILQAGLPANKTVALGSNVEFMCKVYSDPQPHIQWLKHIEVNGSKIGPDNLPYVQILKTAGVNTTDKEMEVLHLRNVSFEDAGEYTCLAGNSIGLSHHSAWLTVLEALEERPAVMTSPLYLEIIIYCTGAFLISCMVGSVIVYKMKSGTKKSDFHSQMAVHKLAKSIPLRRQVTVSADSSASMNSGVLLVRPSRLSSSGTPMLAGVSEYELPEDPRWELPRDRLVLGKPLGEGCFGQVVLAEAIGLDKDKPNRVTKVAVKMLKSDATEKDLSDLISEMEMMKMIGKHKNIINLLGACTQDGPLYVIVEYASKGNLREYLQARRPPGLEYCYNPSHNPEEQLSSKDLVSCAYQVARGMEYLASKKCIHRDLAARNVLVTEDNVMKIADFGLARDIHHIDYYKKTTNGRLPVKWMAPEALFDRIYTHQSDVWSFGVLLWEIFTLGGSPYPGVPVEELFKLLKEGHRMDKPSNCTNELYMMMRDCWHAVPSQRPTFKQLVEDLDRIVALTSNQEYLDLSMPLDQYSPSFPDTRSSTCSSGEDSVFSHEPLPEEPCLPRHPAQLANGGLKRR
UniProt P22455, residues 22-802: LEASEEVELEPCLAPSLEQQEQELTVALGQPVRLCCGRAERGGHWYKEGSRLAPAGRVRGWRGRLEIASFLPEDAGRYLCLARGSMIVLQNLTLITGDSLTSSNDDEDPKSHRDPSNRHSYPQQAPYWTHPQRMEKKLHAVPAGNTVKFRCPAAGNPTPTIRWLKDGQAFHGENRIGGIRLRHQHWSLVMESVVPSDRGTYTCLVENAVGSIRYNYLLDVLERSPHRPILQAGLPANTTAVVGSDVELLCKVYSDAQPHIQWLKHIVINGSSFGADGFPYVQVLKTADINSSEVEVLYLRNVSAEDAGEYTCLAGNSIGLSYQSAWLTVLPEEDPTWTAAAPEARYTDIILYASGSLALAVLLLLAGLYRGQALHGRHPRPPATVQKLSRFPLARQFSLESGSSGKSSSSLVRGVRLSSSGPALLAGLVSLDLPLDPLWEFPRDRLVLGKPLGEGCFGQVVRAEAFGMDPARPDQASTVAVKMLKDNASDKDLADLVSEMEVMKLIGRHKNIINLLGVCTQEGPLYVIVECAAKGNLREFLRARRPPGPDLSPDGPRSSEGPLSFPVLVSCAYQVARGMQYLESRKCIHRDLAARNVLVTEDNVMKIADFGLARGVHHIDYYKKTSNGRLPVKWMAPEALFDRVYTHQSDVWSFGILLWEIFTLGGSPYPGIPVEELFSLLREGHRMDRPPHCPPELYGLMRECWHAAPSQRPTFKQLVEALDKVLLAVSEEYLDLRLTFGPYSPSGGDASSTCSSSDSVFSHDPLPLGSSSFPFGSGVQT
UniProt O43318: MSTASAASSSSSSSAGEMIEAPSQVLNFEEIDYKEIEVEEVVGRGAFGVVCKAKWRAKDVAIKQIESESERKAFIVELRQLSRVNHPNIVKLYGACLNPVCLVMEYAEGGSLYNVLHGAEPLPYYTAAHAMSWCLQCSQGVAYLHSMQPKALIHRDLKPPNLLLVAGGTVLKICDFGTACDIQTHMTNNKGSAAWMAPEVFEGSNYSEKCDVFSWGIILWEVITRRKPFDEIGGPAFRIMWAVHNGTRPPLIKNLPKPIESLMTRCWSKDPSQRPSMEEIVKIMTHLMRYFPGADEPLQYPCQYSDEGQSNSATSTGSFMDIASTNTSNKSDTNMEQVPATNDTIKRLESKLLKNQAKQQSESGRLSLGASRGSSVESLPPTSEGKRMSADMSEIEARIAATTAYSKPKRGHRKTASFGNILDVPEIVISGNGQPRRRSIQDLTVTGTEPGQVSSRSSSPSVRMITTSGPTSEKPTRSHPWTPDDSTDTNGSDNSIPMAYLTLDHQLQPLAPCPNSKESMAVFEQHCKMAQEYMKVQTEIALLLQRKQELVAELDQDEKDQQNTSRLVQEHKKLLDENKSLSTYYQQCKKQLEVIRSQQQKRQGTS

Measured: binding

TGFβ-activated kinase 1 (TAK1), endogenous (from UniProt O43318 1-606)
binds: all assays above
